Results are given in words; binding and its absence hold for the method and conditions named. Binding seen in cells or lysates may run through a third protein. Here binding means that the protein was enriched with, or labelled near, the bait; the list need not be complete. A no says only that the protein was not detected with the bait.
Molecular target: STAT3 (immunoprecipitated from HeLa cell mitochondria) (human (endogenous in HeLa)) (UniProt P40763)
Assay: affinity purification with mass spectrometry; STAT3 immunoprecipitates prepared from HeLa cell mitochondria; mass spectrometry of the binding partners

Chains of the proteins cited; added tags and fusions are not shown.
UniProt P40763: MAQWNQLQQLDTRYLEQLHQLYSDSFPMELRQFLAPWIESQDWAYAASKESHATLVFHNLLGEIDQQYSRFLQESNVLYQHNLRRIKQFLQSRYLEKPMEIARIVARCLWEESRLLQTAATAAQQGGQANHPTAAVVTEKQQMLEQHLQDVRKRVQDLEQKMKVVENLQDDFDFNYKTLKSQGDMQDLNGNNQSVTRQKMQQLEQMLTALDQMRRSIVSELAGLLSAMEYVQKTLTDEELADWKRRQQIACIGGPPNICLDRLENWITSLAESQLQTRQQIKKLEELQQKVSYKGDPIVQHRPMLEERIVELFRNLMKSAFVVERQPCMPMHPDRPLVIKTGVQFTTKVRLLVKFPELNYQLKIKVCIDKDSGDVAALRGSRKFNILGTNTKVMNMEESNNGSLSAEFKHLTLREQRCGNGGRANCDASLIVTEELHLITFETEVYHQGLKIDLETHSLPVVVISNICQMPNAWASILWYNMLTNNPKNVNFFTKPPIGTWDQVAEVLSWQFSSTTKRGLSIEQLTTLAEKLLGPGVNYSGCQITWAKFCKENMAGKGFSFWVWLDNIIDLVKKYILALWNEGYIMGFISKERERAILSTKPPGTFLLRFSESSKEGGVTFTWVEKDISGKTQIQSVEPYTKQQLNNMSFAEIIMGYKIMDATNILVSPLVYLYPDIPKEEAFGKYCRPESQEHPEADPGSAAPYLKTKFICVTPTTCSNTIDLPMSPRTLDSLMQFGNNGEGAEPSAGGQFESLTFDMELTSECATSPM
UniProt P99999: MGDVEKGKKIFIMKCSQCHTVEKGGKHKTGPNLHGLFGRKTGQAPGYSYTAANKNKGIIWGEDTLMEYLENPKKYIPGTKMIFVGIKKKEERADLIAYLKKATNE
UniProt Q9P0J0: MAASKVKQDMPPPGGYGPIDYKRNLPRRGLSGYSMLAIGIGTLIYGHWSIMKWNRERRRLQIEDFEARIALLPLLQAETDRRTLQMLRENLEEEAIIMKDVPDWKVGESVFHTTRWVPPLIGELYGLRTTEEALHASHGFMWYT

Row | Substance | binding
1 | cytochrome C (from UniProt P99999 1-105) | binds
2 | GRIM-19 (from UniProt Q9P0J0 1-144) | no binding

— paper PMC5177931
